Experimental data published in paper PMC5159891.
The exact form of at least one protein or probe is not confirmed. Negatives hold for the conditions tested. At least one verdict was read from the data and is not stated in words by the source. Protein sequences can lack the tags named with them.

biological target: T1, CREB3L3 active form (in vitro translated) (Homo sapiens) (UniProt Q68CJ9); experiment: EMSA; details: EMSA with in vitro-translated lysate, 4% polyacrylamide gel; buffer as previously described (ref 43), pH and temperature not stated; protein translated in …; residues 1-320
T1 sequence (looked up): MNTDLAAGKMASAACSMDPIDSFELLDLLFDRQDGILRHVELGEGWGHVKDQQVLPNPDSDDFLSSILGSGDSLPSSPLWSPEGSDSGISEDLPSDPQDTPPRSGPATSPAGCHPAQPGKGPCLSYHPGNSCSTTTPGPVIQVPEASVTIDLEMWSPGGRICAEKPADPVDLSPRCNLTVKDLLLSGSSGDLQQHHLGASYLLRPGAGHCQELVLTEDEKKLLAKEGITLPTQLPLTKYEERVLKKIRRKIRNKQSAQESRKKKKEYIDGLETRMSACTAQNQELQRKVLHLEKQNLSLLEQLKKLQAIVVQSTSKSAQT

| Sequence | binding result |
| --- | --- |
| GAAAACCTGGTGACGTTGGCTGAGCAAATA (double strand) [Cpt1a promoter CRE WT] | binds |
| GTCTACCCTTGATCTTCTGCTTGCCAGAGGGT (double strand) [Bdh1 promoter -126 to -98] | binds |
| GTGTGTGTCCCTTAGCTGCAGCGTCTACCCTTGAT (double strand) [Bdh1 promoter -151 to -117] | no binding |
| GTTCTCTGGCTGTGTGTGTGTGTGTGTGTGTCC (double strand) [Bdh1 promoter -175 to -141] | no binding |
| GCTTACTTTCCTGGCCTTGCTCAGGGTTCTCTGG (double strand) [Bdh1 promoter -200 to -166] | no binding |
